According to the supplement of paper PMC7661543:
± gives the standard deviation of the averaged measurements. Differences between knockout arms are mostly noise.

Test system: ZR-75-1
Assay: relative cell number vs DMSO control (72 h) (% of DMSO); higher = less growth inhibition (more cells)
Description: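 QMAP-Seq: a pool of 5 breast cancer cell lines (ZR-75-1, SKBR3, HCC-38, MDA-MB-231, BT-20), each carrying 12 doxycycline-inducible Cas9 sgRNA perturbations (11 knockouts plus non-targeting sgNT), was treated with compounds for 72 h at four 10-fold doses (10 nM-10 uM or 1 nM-1 uM range). Barcodes were amplified and sequenced, and cell number was interpolated from 293T spike-in standard curves. The result is expressed as % of the median of DMSO wells. Two biological replicates.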

[1] = sgRNA knockout: sgATF3, 1000 nM
[2] = sgRNA knockout: sgATF3, 10000 nM
[3] = sgRNA knockout: sgATF4, 1000 nM
[4] = sgRNA knockout: sgATF4, 10000 nM
[5] = sgRNA knockout: sgATF6, 1000 nM
[6] = sgRNA knockout: sgATF6, 10000 nM
[7] = sgRNA knockout: sgATG7, 1000 nM
[8] = sgRNA knockout: sgATG7, 10000 nM
[9] = sgRNA knockout: sgERN1, 1000 nM
[10] = sgRNA knockout: sgERN1, 10000 nM
[11] = sgRNA knockout: sgHSF2, 1000 nM
[12] = sgRNA knockout: sgHSF2, 10000 nM
[13] = sgRNA knockout: sgNFE2L2, 10 nM
[14] = sgRNA knockout: sgNFE2L2, 100 nM
[15] = sgRNA knockout: sgNFE2L2, 1000 nM
[16] = sgRNA knockout: sgNFE2L2, 10000 nM
[17] = sgRNA knockout: sgSLC35F2, 10 nM
[18] = sgRNA knockout: sgSLC35F2, 100 nM
[19] = sgRNA knockout: sgSLC35F2, 1000 nM
[20] = sgRNA knockout: sgSLC35F2, 10000 nM
[21] = sgRNA knockout: sgXBP1, 1000 nM
[22] = sgRNA knockout: sgXBP1, 10000 nM

Row | SMILES | relative cell number (sgRNA knockout: sgATF3, 10 nM) | relative cell number (sgRNA knockout: sgATF3, 100 nM) | relative cell number [1] | relative cell number [2] | relative cell number (sgRNA knockout: sgATF4, 10 nM) | relative cell number (sgRNA knockout: sgATF4, 100 nM) | relative cell number [3] | relative cell number [4] | relative cell number (sgRNA knockout: sgATF6, 10 nM) | relative cell number (sgRNA knockout: sgATF6, 100 nM) | relative cell number [5] | relative cell number [6] | relative cell number (sgRNA knockout: sgATG7, 10 nM) | relative cell number (sgRNA knockout: sgATG7, 100 nM) | relative cell number [7] | relative cell number [8] | relative cell number (sgRNA knockout: sgERN1, 10 nM) | relative cell number (sgRNA knockout: sgERN1, 100 nM) | relative cell number [9] | relative cell number [10] | relative cell number (sgRNA knockout: sgHSF2, 10 nM) | relative cell number (sgRNA knockout: sgHSF2, 100 nM) | relative cell number [11] | relative cell number [12] | relative cell number [13] | relative cell number [14] | relative cell number [15] | relative cell number [16] | relative cell number [17] | relative cell number [18] | relative cell number [19] | relative cell number [20] | relative cell number (sgRNA knockout: sgXBP1, 10 nM) | relative cell number (sgRNA knockout: sgXBP1, 100 nM) | relative cell number [21] | relative cell number [22]
1 | COc1cc(C(=O)N2CCC(N3CCN(C)CC3)CC2)ccc1Nc1ncc2c(n1)N(C)c1ccccc1C(=O)N2C [LRRK2IN1] | 125 ± 13 | 121 ± 10 | 74 ± 16 | 25.6 ± 2.7 | 161 ± 16 | 118 ± 9.4 | 75.6 ± 39 | 23.3 ± 1.1 | 121 ± 12 | 94.8 ± 21 | 82.6 ± 18 | 15.9 ± 0.32 | 106 ± 21 | 99.7 ± 15 | 66.5 ± 1.7 | 32.1 ± 10 | 117 ± 2.5 | 124 ± 26 | 64.7 ± 12 | 36.5 ± 1.2 | 97.4 ± 28 | 93.8 ± 22 | 78.5 ± 11 | 29.8 ± 2.1 | 109 ± 26 | 112 ± 9.1 | 75.2 ± 6.5 | 30.7 ± 12 | 112 ± 7 | 74.4 ± 38 | 78.3 ± 24 | 16.1 ± 2.5 | 116 ± 10 | 110 ± 14 | 80.4 ± 1.8 | 34.7 ± 5.3
2 | C[C@@]1(C(=O)Nc2ccc(F)nc2)CCCN1c1nc(Nc2cc(C3CC3)n[nH]2)c2cccn2n1 | 68.4 ± 13 | 60.1 ± 7.9 | 54.5 ± 6.8 | 42 ± 21 | 61.2 ± 9.8 | 90.2 ± 2.6 | 50.8 ± 1.1 | 31.5 ± 8 | 83.2 ± 11 | 82.2 ± 7.9 | 46.2 ± 10 | 28.1 ± 11 | 102 ± 15 | 61.9 ± 4 | 48 ± 8.6 | 40.8 ± 2.5 | 104 ± 12 | 84.4 ± 1.1 | 43.3 ± 2.1 | 41.1 ± 5.7 | 88.2 ± 20 | 63.5 ± 1.8 | 41.9 ± 2.5 | 38.6 ± 7.6 | 79.3 ± 2.7 | 106 ± 7.2 | 47.7 ± 0.98 | 29.8 ± 3.6 | 74.5 ± 2.7 | 63.3 ± 15 | 37.3 ± 10 | 28.8 ± 0.32 | 87 ± 1.8 | 85 ± 6.8 | 45.84 ± 0.29 | 30.2 ± 4.5
3 | C=C1C[C@@H]2[C@H](CC[C@]3(C)C(=O)CC[C@@H]23)[C@@]2(C)C=CC(=O)C=C12 [Exemestane] | 111 ± 20 | 103 ± 52 | 130 ± 11 | 100 ± 7 | 135 ± 8.5 | 97.9 ± 20 | 96.5 ± 13 | 73.3 ± 12 | 136 ± 18 | 100 ± 7.5 | 105 ± 63 | 66.4 ± 25 | 80.7 ± 11 | 92.1 ± 13 | 64.1 ± 8.5 | 113 ± 14 | 103 ± 16 | 91.2 ± 20 | 87.9 ± 23 | 96.4 ± 15 | 94.4 ± 16 | 89.5 ± 33 | 105 ± 7.5 | 104 ± 6.7 | 107 ± 43 | 85.4 ± 1.7 | 133 ± 8.1 | 104 ± 6.7 | 97.6 ± 10 | 95.6 ± 39 | 102 ± 6.9 | 85.2 ± 62 | 97.5 ± 19 | 76.9 ± 18 | 101 ± 16 | 101 ± 2.2
4 | FC(F)c1nc2ccccc2n1-c1nc(N2CCOCC2)nc(N2CCOCC2)n1 [ZSTK474] | 92.5 ± 3.9 | 114 ± 25 | 64.3 ± 2.2 | 46.8 ± 20 | 131 ± 18 | 104 ± 22 | 78.5 ± 44 | 44.9 ± 12 | 156 ± 40 | 100 ± 12 | 62.9 ± 23 | 39.7 ± 5.2 | 80.4 ± 17 | 81.7 ± 38 | 61.8 ± 8.8 | 43 ± 6.6 | 107 ± 6.9 | 87.3 ± 1.9 | 66.1 ± 9.8 | 48.2 ± 11 | 96.8 ± 5.7 | 88.3 ± 10 | 57 ± 5.2 | 46.7 ± 7.3 | 96.1 ± 5.2 | 103 ± 12 | 76.2 ± 15 | 36.4 ± 11 | 72.3 ± 12 | 88.3 ± 12 | 78.2 ± 3 | 41.1 ± 6.3 | 93.4 ± 15 | 83.7 ± 4 | 67.7 ± 9.1 | 36.9 ± 11
